Patent publication US8728516B2, “Stabilized lipid formulation of apoptosis promoter” (AbbVie Inc., priority 2009, dated 2014)
At least one compound was matched to its structure with a doubt left.

Columns and labels:
Format in all cases: physicochemical
[1] = BHA as antioxidant in ternary lipid systems (Example 7); conditions: 15% by weight free base in IPT-253, 40°C without nitrogen purging of headspace
Method: A full report of this study is found in Example 7 herein.
Testing was done in stress conditions at 40° C. without nitrogen purging.

[2] = Sulfoxide formation, free base vs bis-HCl salt in lipid solution (Example 3); conditions: lipid solutions (PE-91, LOT-343) aged at 40°C for up to 3 weeks
Method: The solvent system in solution A is Phosal 53 MCT™/ethanol, 9:1 v/v; and in solution B is Labrafil M 1944 CS™/oleic acid/polysorbate 80, 30%/40%/30% by weight. (Labrafil M 1944 CS™ of Gattefossé contains polyoxyethylene glyceryl monooleate.) The three-week study was conducted at 40° C. without nitrogen purging of headspace. […] No antioxidant was included, nor was headspace nitrogen purging performed.

[3] = Comparative storage study at ambient temperature, IOT-343 vs IPT-442 (Example 5); conditions: for total sulfoxide levels: ambient conditions, 3 months, HPLC; for color change upon storage: ambient temperature
[4] = Antioxidant testing, two-week stress test (Example 6); conditions: 100 mg/g in Lipoid S75 MCT

With `CC1(C)CCC(c2ccc(Cl)cc2)=C(CN2CCN(c3ccc(C(=O)NS(=O)(=O)c4ccc(N[C@H](CCN5CCOCC5)CSc5ccccc5)c(S(=O)(=O)C(F)(F)F)c4)cc3)CC2)C1` [ABT-263] the “% Total sulfoxides” value ([1]; 0.2% BHA, 0 weeks) was 0.06%, the “% Total sulfoxides” value ([1]; 0.2% BHA, 1 week) was 0.29% and the “% Total sulfoxides” value ([1]; 0.2% BHA, 2 weeks) was 0.49%. The “% Total sulfoxides” value ([1]; 0.2% BHA, 3 weeks) was 0.58%, the “% Total sulfoxides” value ([1]; 0.2% BHA, 4 weeks) was 0.68% and the “% Total sulfoxides” value ([1]; No antioxidant, 0 weeks) was “not detectable”. For the same molecule, the “% Total sulfoxides” value ([1]; No antioxidant, 1 week) was 0.26%, the “% Total sulfoxides” value ([1]; No antioxidant, 2 weeks) was 0.47% and the “% Total sulfoxides” value ([1]; No antioxidant, 3 weeks) was 0.56%. For the same molecule, the “% Total sulfoxides” value ([1]; No antioxidant, 4 weeks) was 0.67%, the “color change upon aging” value [2] was “very little color change” and the total sulfoxide levels ([3]; 10% by weight in IOT-343 (Imwitor 742/oleic acid/Tween 80 30:40:30)) was 1.3%. The “color change upon storage” value ([3]; 10% by weight in IOT-343) was “darkened significantly”, the total sulfoxide levels ([3]; 10% by weight in IPT-442 (Imwitor 742/Phosal 53 MCT/Tween 80 40:40:20)) was 0.5% and the “color change upon storage” value ([3]; 10% by weight in IPT-442) was “only darkened slightly”. The solution appearance ([4]; Na metabisulfite 0.1% (w/w) added as 15% w/v aqueous stock) was “cloudy solution” and the solution appearance ([4]; Na thiosulfate 0.1% (w/w) added as 15% w/v aqueous stock) was “cloudy solution”.
